Measurements: the supplement of paper PMC12823440, “Inhibitors supercharge kinase turnover through native proteolytic circuits” (Nature, 2025)
Counter-ions that a name gives are not always drawn. The list shows a part of the results. The calls rarely recur for the same compound in another form.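 Kinases were expressed as nanoluciferase fusions in K562 cells and luminescence was read every 4 h between 2 and 18 h as percent of control, DMSO set to 100% and a positive control to 0%. A time point counts as decreased when the signal drops significantly (2 sigma). The hit call is the authors' own, does not follow from the count of time points alone, and its rule is not shown.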

The chains behind the UniProt entries cited, without tags or fusion partners.
UniProt P49137, whole entry, looked up: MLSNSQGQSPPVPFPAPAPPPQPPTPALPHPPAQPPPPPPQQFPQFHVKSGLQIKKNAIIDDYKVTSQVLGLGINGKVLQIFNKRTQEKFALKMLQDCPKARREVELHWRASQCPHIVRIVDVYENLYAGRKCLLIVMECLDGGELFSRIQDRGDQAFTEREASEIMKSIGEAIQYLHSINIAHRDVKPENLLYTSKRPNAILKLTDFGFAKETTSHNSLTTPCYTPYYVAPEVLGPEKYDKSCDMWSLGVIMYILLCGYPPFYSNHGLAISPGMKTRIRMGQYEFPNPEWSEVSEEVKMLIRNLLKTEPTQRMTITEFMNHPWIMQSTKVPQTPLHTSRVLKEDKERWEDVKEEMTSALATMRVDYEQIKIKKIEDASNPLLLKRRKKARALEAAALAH

Each compound was assayed against MAPKAPK2 (UniProt P49137) (assay: number of time points (of 5) at which kinase-Nluc abundance scored as decreased, DMSO-normalised (count); higher = more persistent destabilization). Settings: K562; 2-18 h.

Row | SMILES | number of time points
1 | Cc1cnc(Cl)nc1-c1ccc(N(Cc2ccc(CNC(=O)C(F)F)cc2)C(=O)c2ccc(O)cc2O)cc1 (10 µM) | 0
2 | COc1cc2c(cc1OC)[C@@H]1C(=O)c3ccc4c(c3O[C@@H]1CO2)C=CC(C)(C)O4 [Deguelin] (10 µM) | 0
3 | CC(C)(CCCCCC(O)CCCCCC(C)(C)C(=O)O)C(=O)O [Bempedoic acid] (10 µM) | 0
4 | COc1cc2nnc(C(N)=O)c(Nc3ccc(C)cc3F)c2cc1N1CCN(CCO)CC1 (2.5 µM) | 0
5 | O=C(Nc1ccc(Cl)cc1)C1CN(C(=O)c2cccc(-c3ccco3)c2)CC(F)(F)C1 (stereo not drawn) (2.5 µM) | 0
6 | CC(=O)O[C@@H]1[C@@H](OC(C)=O)[C@@H](O)[C@H](Oc2c(-c3ccc(O)cc3)oc3cc(O)cc(O)c3c2=O)O[C@H]1C (10 µM) | 0
7 | COc1cc2nc(-c3cc(F)ccc3O)nc(N[C@@H]3CNC[C@H]3C(C)(C)O)c2cc1OC (2.5 µM) | 0
8 | C=CC(=O)Nc1cccc(Oc2nc(Nc3ccc(N4CCN(C)CC4)cc3OC)ncc2Cl)c1 (10 µM) | 0
9 | C=CC(=O)Nc1cc(Nc2nccc(-c3cn(C)c4ccccc34)n2)c(OCC(F)(F)F)nc1N(C)CCNC [AST5902  (trimesylate)] (2.5 µM) | 0
10 | O=C1C=CC2=C3c4cc(O)c(O)cc4CC3(O)COC2=C1O (stereo not drawn) [Hematein] (10 µM) | 0
11 | CCC(F)(F)c1cc(N2CCC(S(C)(=O)=O)CC2)nc2sc(C(N)=O)c(N)c12 (10 µM) | 0
12 | Cn1cc(C2=C(c3ccc(Cl)cc3Cl)C(=O)NC2=O)c2ccccc21 (10 µM) | 0
13 | CCOC(=O)c1c(N2CCc3ccc(OC)cc3C2)oc(C=C2C=Nc3ncccc32)c1O (10 µM) | 0
14 | O=C(COc1ccc(Cl)cc1)NC1CCC(NC(=O)COc2ccc(Cl)cc2)CC1 (stereo not drawn) [ISRIB (trans-isomer)] (10 µM) | 0
15 | COc1ccc(CCNCc2ccc(OCc3ccc(Cl)nc3)c(OC)c2)cc1OC [SBE13 (Hydrochloride)] (10 µM) | 0
16 | Cc1cccc(CC(=O)N2CCc3c2ccc(-c2cn(C)c4ncnc(N)c24)c3F)n1 (10 µM) | 0
17 | COc1cc(N2CCC(N3CCN(C)CC3)CC2)ccc1Nc1ncnc(Nc2ccccc2S(=O)(=O)C(C)C)n1 (10 µM) | 0

Row | SMILES | number of time points
18 | CC(C)(Oc1ccc(Cl)cc1)C(=O)Nc1ccc(OCc2ccc(C#N)cc2)cc1 [AMPK activator 4] (10 µM) | 0
19 | Cc1cc(N2CCOCC2)ccc1Nc1nc(NC2CCCCC2)c2[nH]cnc2n1 (10 µM) | 0
20 | COC(=O)N1CCN(C2CCC(Nc3nc(Nc4cnn(C)c4)nc4ccc(CC#N)nc34)CC2)CC1 (stereo not drawn) (10 µM) | 0
21 | CN(C)CCn1cc2cc(NC(=O)c3cccc(C(F)(F)F)n3)c(C(C)(C)O)cc2n1 (10 µM) | 0
22 | CCOc1cc(N2CCC(O)CC2)ccc1Nc1ncc2c(n1)N(C1CCCC1)CCC(=O)N2C (2.5 µM) | 0
23 | CCC[C@H](C)Oc1nc(N)c2[nH]c(=O)n(CCCCCN3CCCCC3)c2n1 (10 µM) | 0
24 | Fc1ccc(-c2nc3n(c2-c2ccncc2)CCS3)cc1 (10 µM) | 0
25 | CC(ONC(=O)c1cc(C(F)(F)F)cc(C(F)(F)F)c1)C(=O)Nc1ccc(Cl)cc1 (stereo not drawn) (2.5 µM) | 0
26 | O=C(Nc1ccccc1C(=O)NC1CCCCNC1=O)c1cc2ccccc2s1 (stereo not drawn) (10 µM) | 0
27 | N#CC(=C(/N)Sc1ccccc1N)/C(C#N)=C(\N)Sc1ccccc1N (10 µM) | 0
28 | Nc1ccc(O)c(C(=O)O)c1 [5-Aminosalicylic Acid] (10 µM) | 0
29 | CNCc1ccccc1Sc1cccc2ccccc12 [IFN alpha-IFNAR-IN-1 (hydrochloride)] (10 µM) | 0
30 | CCCCNc1ncc2c(-c3ccc(F)cc3)nn(CC3CCC(N)CC3)c2n1 (stereo not drawn) (2.5 µM) | 0
31 | Cc1ncsc1-c1ccc(CNC(=O)[C@@H]2C[C@@H](O)CN2C(=O)[C@@H](NC(=O)COCCOc2ccc(-c3cc(Nc4ccc(OC(F)(F)F)cc4)ncn3)cc2)C(C)(C)C)cc1 (2.5 µM) | 0
32 | Cn1cnc2c(F)c(Nc3ccc(Br)cc3F)c(C(=O)NOCCO)cc21 [Binimetinib] (10 µM) | 0
33 | O=C1NC(=O)C(Cc2c[nH]c3c(Cl)cccc23)N1 (stereo not drawn) [Necroptosis-IN-1] (10 µM) | 0

Part of the list above, tab-delimited:
Row	SMILES	number of time points
24	Fc1ccc(-c2nc3n(c2-c2ccncc2)CCS3)cc1 (10 µM)	0
25	CC(ONC(=O)c1cc(C(F)(F)F)cc(C(F)(F)F)c1)C(=O)Nc1ccc(Cl)cc1 (stereo not drawn) (2.5 µM)	0
